Data as given in article PMC10908866.
Results are given in words; binding and its absence hold for the method and conditions named. Some binding calls cover weakened binding; strength is not graded here.

The chains behind the UniProt entries cited, without tags or fusion partners. Residues count along the entry.
UniProt Q14244, residues 59-170: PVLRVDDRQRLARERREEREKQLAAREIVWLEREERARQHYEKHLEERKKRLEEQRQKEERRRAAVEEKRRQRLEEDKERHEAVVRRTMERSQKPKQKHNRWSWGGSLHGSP

Key:
[1] = target: MAP7 microtubule-binding domain (MTBD), residues 59-170 (human) (UniProt Q14244); assay: NMR titration; increasing stoichiometric ratios of CTT peptide added to 80 µM [13C-15N] MAP7 MTBD; 1H-15N TROSY, 298 K, 900 MHz; 40 mM NaPi pH 6.5, 150 mM NaCl, 1 mM DTT; both purified
[2] = target: MAP7 microtubule-binding domain (MTBD), residues 59-170 (human) (UniProt Q14244); assay: NMR titration; [13C-15N] MAP7 MTBD with 10-fold α-CTT at 500 mM salt (series of salt concentrations); both purified

Row | binding [1] | binding [2] | Binder
1 | binds weakly | – | DATAEEEEDFGEEAEEEA [β-tubulin C-terminal tail peptide, residues Asp 427-Ala 444 of HeLa S3 β-tubulin]
2 | binds weakly | no binding (condition: 500 mM salt) | SVEGEGEEEGEEY [α-tubulin C-terminal tail peptide, residues Ser 439-Tyr 451 of HeLa S3 α-tubulin]
